Experimental data as given in publication PMC12611769, “Phase-separated NDF−FACT condensates facilitate transcription elongation on chromatin” (Nature Cell Biology, 2025).
No constants are given. Whether binding was seen depends on the method and setting. In cells and extracts the contact can be indirect. Here binding means that the protein was enriched with, or labelled near, the bait; the list need not be complete. Tags and fused reporters may be left off the sequences shown.

The chains behind the UniProt entries cited, without tags or fusion partners.
UniProt Q08945: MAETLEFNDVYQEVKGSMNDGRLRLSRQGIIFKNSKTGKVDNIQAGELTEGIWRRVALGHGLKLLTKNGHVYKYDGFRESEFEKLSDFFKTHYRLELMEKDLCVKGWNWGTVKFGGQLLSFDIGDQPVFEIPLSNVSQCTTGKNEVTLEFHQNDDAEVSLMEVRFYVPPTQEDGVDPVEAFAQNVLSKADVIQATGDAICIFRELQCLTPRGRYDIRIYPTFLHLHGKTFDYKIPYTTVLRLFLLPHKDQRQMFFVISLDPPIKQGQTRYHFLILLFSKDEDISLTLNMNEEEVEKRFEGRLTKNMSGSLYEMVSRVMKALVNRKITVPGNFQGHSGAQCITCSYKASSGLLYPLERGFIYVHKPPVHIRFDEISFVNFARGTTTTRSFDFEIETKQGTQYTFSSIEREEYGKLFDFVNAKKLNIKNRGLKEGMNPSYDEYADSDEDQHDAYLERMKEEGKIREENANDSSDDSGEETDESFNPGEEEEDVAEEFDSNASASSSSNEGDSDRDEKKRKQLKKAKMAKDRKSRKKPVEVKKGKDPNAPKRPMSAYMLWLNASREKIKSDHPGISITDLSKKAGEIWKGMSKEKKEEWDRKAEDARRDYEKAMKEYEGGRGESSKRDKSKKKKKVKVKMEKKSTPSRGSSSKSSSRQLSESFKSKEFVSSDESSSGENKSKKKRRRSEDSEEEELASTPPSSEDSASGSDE
UniProt Q9Y5B9: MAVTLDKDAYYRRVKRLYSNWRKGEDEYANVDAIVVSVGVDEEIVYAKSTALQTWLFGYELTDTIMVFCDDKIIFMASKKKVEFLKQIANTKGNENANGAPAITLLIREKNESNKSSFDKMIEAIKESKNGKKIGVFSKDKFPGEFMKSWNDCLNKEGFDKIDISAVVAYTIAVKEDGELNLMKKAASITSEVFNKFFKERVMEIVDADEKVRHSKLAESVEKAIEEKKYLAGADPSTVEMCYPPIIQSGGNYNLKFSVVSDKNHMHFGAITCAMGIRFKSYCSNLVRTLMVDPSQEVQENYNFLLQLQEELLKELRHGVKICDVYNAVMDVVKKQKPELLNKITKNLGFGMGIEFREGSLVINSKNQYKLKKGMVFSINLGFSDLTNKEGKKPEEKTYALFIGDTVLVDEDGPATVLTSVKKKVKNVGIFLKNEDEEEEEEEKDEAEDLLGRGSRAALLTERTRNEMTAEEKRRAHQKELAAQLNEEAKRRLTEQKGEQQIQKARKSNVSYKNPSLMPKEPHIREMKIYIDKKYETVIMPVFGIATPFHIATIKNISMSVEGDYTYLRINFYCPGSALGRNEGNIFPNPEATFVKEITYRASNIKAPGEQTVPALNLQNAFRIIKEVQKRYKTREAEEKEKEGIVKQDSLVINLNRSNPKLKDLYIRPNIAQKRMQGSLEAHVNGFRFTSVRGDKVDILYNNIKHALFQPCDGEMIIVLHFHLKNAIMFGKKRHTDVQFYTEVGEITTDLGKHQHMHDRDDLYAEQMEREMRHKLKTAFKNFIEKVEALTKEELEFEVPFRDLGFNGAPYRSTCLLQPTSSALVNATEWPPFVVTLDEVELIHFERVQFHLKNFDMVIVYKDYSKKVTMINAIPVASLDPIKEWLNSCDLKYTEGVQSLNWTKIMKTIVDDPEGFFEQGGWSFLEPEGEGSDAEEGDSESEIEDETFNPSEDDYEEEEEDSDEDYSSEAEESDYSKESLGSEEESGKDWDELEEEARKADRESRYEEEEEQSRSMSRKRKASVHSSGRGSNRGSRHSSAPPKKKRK

Biological target: T1, hNDF-Flag-GFP (human nucleosome destabilizing factor, GFP- and Flag-tagged) (human) (UniProt Q49A26)
T1 sequence: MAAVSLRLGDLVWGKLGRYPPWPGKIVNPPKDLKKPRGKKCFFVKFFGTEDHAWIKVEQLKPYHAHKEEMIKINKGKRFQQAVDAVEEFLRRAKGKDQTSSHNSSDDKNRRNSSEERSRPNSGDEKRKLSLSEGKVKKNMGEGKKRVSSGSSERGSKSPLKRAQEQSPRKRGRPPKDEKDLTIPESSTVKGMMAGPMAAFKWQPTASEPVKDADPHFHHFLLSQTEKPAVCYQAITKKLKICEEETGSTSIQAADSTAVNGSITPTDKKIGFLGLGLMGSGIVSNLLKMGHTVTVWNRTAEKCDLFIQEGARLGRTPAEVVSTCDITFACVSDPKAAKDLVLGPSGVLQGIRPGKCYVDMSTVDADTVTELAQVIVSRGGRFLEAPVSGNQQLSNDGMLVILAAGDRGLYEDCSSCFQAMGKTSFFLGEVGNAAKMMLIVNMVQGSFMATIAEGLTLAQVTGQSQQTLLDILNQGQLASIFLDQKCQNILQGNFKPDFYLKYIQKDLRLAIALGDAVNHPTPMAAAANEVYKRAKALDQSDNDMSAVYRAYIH
Test: affinity purification with mass spectrometry; tandem affinity purification (Flag M2 agarose, Flag peptide elution, then GFP-Trap beads) of NDF-Flag-GFP from sonicated HeLa lysate in NETN buffer (20 mM Tris-HCl pH 8.0, 100 mM NaCl, 0.5% Nonidet P-40), 4 °C

Row | Substance | binding
1 | SSRP1, subunit of the human FACT complex, endogenous (from UniProt Q08945 1-709) | binds
2 | Spt16 (SUPT16H), subunit of the human FACT complex, endogenous (from UniProt Q9Y5B9 1-1047) | binds
